{"source": "PubChem BioAssay AID743121 (NCATS, 2013)", "screen": "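Genes whose silencing strengthens cell killing by camptothecin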 (primary screen)", "system": "MDA-MB-231 cells, a human breast cancer line", "knock-down reagent": "single siRNA against human genes, 20 nM siRNA (0.8 pmol per well)", "timing": "120 h (drug added 48 h after transfection, read 72 h later)", "treatment": "camptothecin 20 nM (about EC30) for 72 h; vehicle 0.1% DMSO in parallel plates", "measurement": "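CellTiter-Glo ATP signal, scaled to control siRNA as percent viability; sensitisation given as log2 of untreated divided by camptothecin-treated viability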", "scale": "log2 vehicle/camptothecin viability: higher = stronger sensitisation to camptothecin; viability with camptothecin: higher = more viable cells", "units": "viability with camptothecin in % of control", "call rule": "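Active genes have an RSA gene-level p-value below 0.001, computed from the ratios of their separate siRNAs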", "note": "The whole screen tested about 26,000 reagents; below is a random part of them. Of all reagents, 167 (0.63%) are marked active. 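Calls are per gene from RSA p-values that are not deposited; an individual active-marked siRNA can sensitise only weakly.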 Unmarked entries are inactive. Reagents against one gene are numbered here. Not all columns of the deposit are shown."}
{"gene": "LRCH4", "reagent": 1, "log2 vehicle/camptothecin viability": "0.403 (active)", "viability with camptothecin": 38.5}
{"gene": "LRCH4", "reagent": 2, "log2 vehicle/camptothecin viability": "-0.743 (active)", "viability with camptothecin": 64.8}
{"gene": "LRCH4", "reagent": 3, "log2 vehicle/camptothecin viability": "0.514 (active)", "viability with camptothecin": 29.1}
{"gene": "LRCH4", "reagent": 4, "log2 vehicle/camptothecin viability": "0.957 (active)", "viability with camptothecin": 39.2}
{"gene": "DLK2 (delta like non-canonical Notch ligand 2)", "reagent": 1, "log2 vehicle/camptothecin viability": -0.219, "viability with camptothecin": 113}
{"gene": "DLK2 (delta like non-canonical Notch ligand 2)", "reagent": 2, "log2 vehicle/camptothecin viability": -0.331, "viability with camptothecin": 72.3}
{"gene": "DLK2 (delta like non-canonical Notch ligand 2)", "reagent": 3, "log2 vehicle/camptothecin viability": -0.0106, "viability with camptothecin": 72.3}
{"gene": "DLK2 (delta like non-canonical Notch ligand 2)", "reagent": 4, "log2 vehicle/camptothecin viability": 0.175, "viability with camptothecin": 55.9}
{"gene": "MAFB (MAF bZIP transcription factor B)", "reagent": 1, "log2 vehicle/camptothecin viability": -0.34, "viability with camptothecin": 88.9}
{"gene": "MAFB (MAF bZIP transcription factor B)", "reagent": 2, "log2 vehicle/camptothecin viability": -0.145, "viability with camptothecin": 56.9}
{"gene": "MAFB (MAF bZIP transcription factor B)", "reagent": 3, "log2 vehicle/camptothecin viability": -0.00904, "viability with camptothecin": 40.2}
{"gene": "RAC2 (Rac family small GTPase 2)", "reagent": 1, "log2 vehicle/camptothecin viability": -0.44, "viability with camptothecin": 22.5}
{"gene": "RAC2 (Rac family small GTPase 2)", "reagent": 2, "log2 vehicle/camptothecin viability": 0.114, "viability with camptothecin": 87.2}
{"gene": "RAC2 (Rac family small GTPase 2)", "reagent": 3, "log2 vehicle/camptothecin viability": 1.34, "viability with camptothecin": 35.4}
{"gene": "RAC2 (Rac family small GTPase 2)", "reagent": 4, "log2 vehicle/camptothecin viability": -0.347, "viability with camptothecin": 69}
{"gene": "AKR1C1 (aldo-keto reductase family 1 member C1)", "reagent": 1, "log2 vehicle/camptothecin viability": 0.28, "viability with camptothecin": 54.4}
{"gene": "AKR1C1 (aldo-keto reductase family 1 member C1)", "reagent": 2, "log2 vehicle/camptothecin viability": 0.165, "viability with camptothecin": 63.5}
{"gene": "AKR1C1 (aldo-keto reductase family 1 member C1)", "reagent": 3, "log2 vehicle/camptothecin viability": -0.0344, "viability with camptothecin": 80.2}
{"gene": "AKR1C1 (aldo-keto reductase family 1 member C1)", "reagent": 4, "log2 vehicle/camptothecin viability": 0.494, "viability with camptothecin": 47.7}
{"gene": "AKR1C1 (aldo-keto reductase family 1 member C1)", "reagent": 5, "log2 vehicle/camptothecin viability": -0.0793, "viability with camptothecin": 94}

8 of these entries, reformatted:
MAFB (MAF bZIP transcription factor B) #1
- log2 vehicle/camptothecin viability: -0.34
- viability with camptothecin: 88.9

MAFB (MAF bZIP transcription factor B) #2
- log2 vehicle/camptothecin viability: -0.145
- viability with camptothecin: 56.9

MAFB (MAF bZIP transcription factor B) #3
- log2 vehicle/camptothecin viability: -0.00904
- viability with camptothecin: 40.2

RAC2 (Rac family small GTPase 2) #1
- log2 vehicle/camptothecin viability: -0.44
- viability with camptothecin: 22.5

RAC2 (Rac family small GTPase 2) #2
- log2 vehicle/camptothecin viability: 0.114
- viability with camptothecin: 87.2

RAC2 (Rac family small GTPase 2) #3
- log2 vehicle/camptothecin viability: 1.34
- viability with camptothecin: 35.4

RAC2 (Rac family small GTPase 2) #4
- log2 vehicle/camptothecin viability: -0.347
- viability with camptothecin: 69

AKR1C1 (aldo-keto reductase family 1 member C1) #1
- log2 vehicle/camptothecin viability: 0.28
- viability with camptothecin: 54.4

The listing continues.
{"gene": "CABIN1 (calcineurin binding protein 1)", "reagent": 1, "log2 vehicle/camptothecin viability": -0.053, "viability with camptothecin": 96.5}
{"gene": "CABIN1 (calcineurin binding protein 1)", "reagent": 2, "log2 vehicle/camptothecin viability": -0.376, "viability with camptothecin": 72.1}
{"gene": "CABIN1 (calcineurin binding protein 1)", "reagent": 3, "log2 vehicle/camptothecin viability": -0.218, "viability with camptothecin": 82.6}
{"gene": "CABIN1 (calcineurin binding protein 1)", "reagent": 4, "log2 vehicle/camptothecin viability": -0.107, "viability with camptothecin": 85.7}
{"gene": "SQLE (squalene epoxidase)", "reagent": 1, "log2 vehicle/camptothecin viability": -0.439, "viability with camptothecin": 71.8}
{"gene": "SQLE (squalene epoxidase)", "reagent": 2, "log2 vehicle/camptothecin viability": -0.34, "viability with camptothecin": 111}
{"gene": "SQLE (squalene epoxidase)", "reagent": 3, "log2 vehicle/camptothecin viability": -0.385, "viability with camptothecin": 36}
{"gene": "SQLE (squalene epoxidase)", "reagent": 4, "log2 vehicle/camptothecin viability": 0.0292, "viability with camptothecin": 119}
{"gene": "AHRR (aryl hydrocarbon receptor repressor)", "reagent": 1, "log2 vehicle/camptothecin viability": -0.457, "viability with camptothecin": 100}
{"gene": "AHRR (aryl hydrocarbon receptor repressor)", "reagent": 2, "log2 vehicle/camptothecin viability": -0.398, "viability with camptothecin": 61.4}
{"gene": "AHRR (aryl hydrocarbon receptor repressor)", "reagent": 3, "log2 vehicle/camptothecin viability": 0.28, "viability with camptothecin": 26.5}
{"gene": "AHRR (aryl hydrocarbon receptor repressor)", "reagent": 4, "log2 vehicle/camptothecin viability": -0.00805, "viability with camptothecin": 32}
{"gene": "ARHGDIG (Rho GDP dissociation inhibitor gamma)", "reagent": 1, "log2 vehicle/camptothecin viability": 0.101, "viability with camptothecin": 89.6}
{"gene": "ARHGDIG (Rho GDP dissociation inhibitor gamma)", "reagent": 2, "log2 vehicle/camptothecin viability": -0.147, "viability with camptothecin": 96.3}
{"gene": "ARHGDIG (Rho GDP dissociation inhibitor gamma)", "reagent": 3, "log2 vehicle/camptothecin viability": -0.237, "viability with camptothecin": 80.9}
{"gene": "ARHGDIG (Rho GDP dissociation inhibitor gamma)", "reagent": 4, "log2 vehicle/camptothecin viability": 0.53, "viability with camptothecin": 73.7}
{"gene": "PRKG2 (protein kinase cGMP-dependent 2)", "reagent": 1, "log2 vehicle/camptothecin viability": 0.36, "viability with camptothecin": 29.9}
{"gene": "PRKG2 (protein kinase cGMP-dependent 2)", "reagent": 2, "log2 vehicle/camptothecin viability": -0.278, "viability with camptothecin": 94.1}
{"gene": "PRKG2 (protein kinase cGMP-dependent 2)", "reagent": 3, "log2 vehicle/camptothecin viability": -0.0318, "viability with camptothecin": 78.2}
{"gene": "PRKG2 (protein kinase cGMP-dependent 2)", "reagent": 4, "log2 vehicle/camptothecin viability": -0.216, "viability with camptothecin": 127}
{"gene": "PSMC5 (proteasome 26S subunit, ATPase 5)", "reagent": 1, "log2 vehicle/camptothecin viability": -0.254, "viability with camptothecin": 10.7}
{"gene": "PSMC5 (proteasome 26S subunit, ATPase 5)", "reagent": 2, "log2 vehicle/camptothecin viability": -0.574, "viability with camptothecin": 13.9}
{"gene": "PSMC5 (proteasome 26S subunit, ATPase 5)", "reagent": 3, "log2 vehicle/camptothecin viability": -0.359, "viability with camptothecin": 13.5}
{"gene": "PSMC5 (proteasome 26S subunit, ATPase 5)", "reagent": 4, "log2 vehicle/camptothecin viability": 0.053, "viability with camptothecin": 3.53}
{"gene": "CD200R1L (CD200 receptor 1 like)", "reagent": 1, "log2 vehicle/camptothecin viability": 0.281, "viability with camptothecin": 56.4}
{"gene": "CD200R1L (CD200 receptor 1 like)", "reagent": 2, "log2 vehicle/camptothecin viability": -0.338, "viability with camptothecin": 75.8}
{"gene": "CD200R1L (CD200 receptor 1 like)", "reagent": 3, "log2 vehicle/camptothecin viability": -0.274, "viability with camptothecin": 120}
